Values quoted from earlier work as cited in patent US11753404B2, “Aminothiazole compounds as c-Kit inhibitors” (Ariad Pharmaceuticals, Inc., priority 2016, dated 2023).
At least one structure is not confirmed: it was looked up by name or label, or the drawing left a doubt.

Test system: gastrointestinal stromal tumors (GIST)
Settings: GIST patients with imatinib-resistant tumors; cited from earlier work

## CCN(CC)CCNC(=O)c1c(C)[nH]c(/C=C2\C(=O)Nc3ccc(F)cc32)c1C [sunitinib]
  median progression-free survival (PFS): 6.2 months
  overall response rates (ORR): 7%
